# Results reported in the supplement of paper PMC8728848.
# The list shows a part of the results.
# B1: BabA (Helicobacter pylori), O52269_HELPY (protein)
# chain: AEDDGFYMSAGYQIGEAAQMVKNTKGIQELSDNYENLSNLLTRYSTLNTLIKLSADPSAVNAARENLGASAKNLIGDTKNSPAYQAVLLAINAAVGFWNVVGYVTQCGGNANGQKSTSSTTIFNNEPGYRSTSITCSLNGHMPGYYGPMSIENFKKLNEAYQILQTALKNGLPALKENNGTVNVTYSYTCSGEGNDNCSLQTTGVTNQNNGTKTETQTIDGKSVTTTISSKVVDSQ
# Experiments:
# Assay in all cases: glycan array binding signal (z-score within array); higher = stronger binding
# Conditions in all cases: glycan notation: IUPAC condensed, linker removed
# [1] = target: Gal(b1-3)GlcNAc(b1-3)Gal(b1-3)GlcNAc
# How it was run: (§1)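 Negative Z-scores can be read as non-binding. The Z-score is calculated within each array and then averaged across arrays of one protein sequence at different concentrations or buffers and across linkers. Arrays, 3228 in all, were curated from the Consortium for Functional Glycomics database and kept only where the protein sequence was available.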
# [2] = target: Gal(b1-3)GlcNAc(b1-3)Gal(b1-4)Glc
# How it was run: as §1
# [3] = target: Gal(b1-3)GlcNAc(b1-3)Gal(b1-4)GlcNAc
# How it was run: as §1
# [4] = target: Gal(b1-3)GlcNAc(b1-3)Gal(b1-4)GlcNAc(b1-2)Man(a1-3)[Gal(b1-3)GlcNAc(b1-3)Gal(b1-4)GlcNAc(b1-2)Man(a1-6)]Man(b1-4)GlcNAc(b1-4)GlcNAc
# How it was run: as §1
# [5] = target: Gal(b1-3)GlcNAc(b1-3)Gal(b1-4)GlcNAc(b1-2)[Gal(b1-3)GlcNAc(b1-3)Gal(b1-4)GlcNAc(b1-6)]Man(a1-6)[Gal(b1-3)GlcNAc(b1-3)Gal(b1-4)GlcNAc(b1-2)Man(a1-3)]Man(b1-4)GlcNAc(b1-4)[Fuc(a1-6)]GlcNAc
# How it was run: as §1
# [6] = target: Gal(b1-3)GlcNAc(b1-3)Gal(b1-4)GlcNAc(b1-3)Gal(b1-4)GlcNAc(b1-2)[Gal(b1-3)GlcNAc(b1-3)Gal(b1-4)GlcNAc(b1-3)Gal(b1-4)GlcNAc(b1-6)]Man(a1-6)[Gal(b1-3)GlcNAc(b1-3)Gal(b1-4)GlcNAc(b1-3)Gal(b1-4)GlcNAc(b1-2)Man(a1-3)]Man(b1-4)GlcNAc(b1-4)[Fuc(a1-6)]GlcNAc
# How it was run: as §1
# [7] = target: Gal(b1-3)GlcNAc(b1-3)Gal(b1-4)GlcNAc(b1-6)[Gal(b1-3)GlcNAc(b1-3)]Gal(b1-4)Glc
# How it was run: as §1
# [8] = target: Gal(b1-3)GlcNAc(b1-3)Gal(b1-4)[Fuc(a1-3)]GlcNAc
# How it was run: as §1
# [9] = target: Gal(b1-3)GlcNAc(b1-3)Gal(b1-4)[Fuc(a1-3)]GlcNAc(b1-6)[Gal(b1-3)GlcNAc(b1-3)]Gal(b1-4)Glc
# How it was run: as §1
# [10] = target: Gal(b1-3)GlcNAc(b1-3)GalNAc
# How it was run: as §1
# [11] = target: Gal(b1-3)GlcNAc(b1-6)Gal(b1-4)GlcNAc
# How it was run: as §1
# [12] = target: Gal(b1-3)GlcNAc(b1-6)GalNAc
# How it was run: as §1
# [13] = target: Gal(b1-3)GlcNAc(b1-6)[Gal(b1-3)]GalNAc
# How it was run: as §1
# Gal(b1-3)GlcNAc6S = target: Gal(b1-3)GlcNAc6S
# How it was run: as §1
# [14] = target: Gal(b1-3)[Fuc(a1-4)]GlcNAc
# How it was run: as §1
# [15] = target: Gal(b1-3)[Fuc(a1-4)]GlcNAc(b1-2)Man
# How it was run: as §1
# [16] = target: Gal(b1-3)[Fuc(a1-4)]GlcNAc(b1-2)Man(a1-3)[Gal(b1-3)[Fuc(a1-4)]GlcNAc(b1-2)Man(a1-6)]Man(b1-4)GlcNAc(b1-4)GlcNAc
# How it was run: as §1
# [17] = target: Gal(b1-3)[Fuc(a1-4)]GlcNAc(b1-2)Man(a1-3)[Gal(b1-3)[Fuc(a1-4)]GlcNAc(b1-2)Man(a1-6)]Man(b1-4)GlcNAc(b1-4)[Fuc(a1-6)]GlcNAc
# How it was run: as §1
# [18] = target: Gal(b1-3)[Fuc(a1-4)]GlcNAc(b1-3)Gal(b1-3)[Fuc(a1-4)]GlcNAc
# How it was run: as §1
# [19] = target: Gal(b1-3)[Fuc(a1-4)]GlcNAc(b1-3)Gal(b1-4)GlcNAc
# How it was run: as §1
# [20] = target: Gal(b1-3)[Fuc(a1-4)]GlcNAc(b1-3)Gal(b1-4)[Fuc(a1-3)]GlcNAc
# How it was run: as §1
# [21] = target: Gal(b1-3)[Fuc(a1-4)]GlcNAc(b1-6)GalNAc
# How it was run: as §1
# [22] = target: Gal(b1-3)[GlcNAc(b1-6)]GalNAc
# How it was run: as §1
# [23] = target: Gal(b1-3)[Neu5Ac(a2-6)]GalNAc
# How it was run: as §1
# [24] = target: Gal(b1-3)[Neu5Ac(a2-6)]GlcNAc(b1-4)Gal(b1-4)Glc
# How it was run: as §1
# [25] = target: Gal(b1-3)[Neu5Ac(a2-6)]GlcNAc(b1-6)Gal(b1-4)Glc
# How it was run: as §1
# [26] = target: Gal(b1-3)[Neu5Ac(b2-6)]GalNAc
# How it was run: as §1
# Gal(b1-4)Gal = target: Gal(b1-4)Gal
# How it was run: as §1
# [27] = target: Gal(b1-4)GalNAc(a1-3)[Fuc(a1-2)]Gal(b1-4)GlcNAc
# How it was run: as §1
# [28] = target: Gal(b1-4)GalNAc(b1-3)[Fuc(a1-2)]Gal(b1-4)GlcNAc
# How it was run: as §1
# Gal(b1-4)Glc = target: Gal(b1-4)Glc
# How it was run: as §1
# Gal(b1-4)Glc6S = target: Gal(b1-4)Glc6S
# How it was run: as §1
# Gal(b1-4)GlcNAc = target: Gal(b1-4)GlcNAc
# How it was run: as §1
# [29] = target: Gal(b1-4)GlcNAc(a1-6)Gal(b1-4)GlcNAc
# How it was run: as §1
# Gal(b1-4)GlcNAc(b1-2)Man = target: Gal(b1-4)GlcNAc(b1-2)Man
# How it was run: as §1
# [30] = target: Gal(b1-4)GlcNAc(b1-2)Man(a1-3)Man(b1-4)GlcNAc(b1-4)GlcNAc
# How it was run: as §1
# [31] = target: Gal(b1-4)GlcNAc(b1-2)Man(a1-3)[Gal(b1-4)GlcNAc(b1-2)Man(a1-6)]Man(b1-4)GlcNAc(b1-4)GlcNAc
# How it was run: as §1
# [32] = target: Gal(b1-4)GlcNAc(b1-2)Man(a1-3)[Gal(b1-4)GlcNAc(b1-2)Man(a1-6)]Man(b1-4)GlcNAc(b1-4)[Fuc(a1-6)]GlcNAc
# How it was run: as §1
# [33] = target: Gal(b1-4)GlcNAc(b1-2)Man(a1-3)[Gal(b1-4)GlcNAc(b1-2)Man(a1-6)][Gal(b1-4)GlcNAc(b1-4)]Man(b1-4)GlcNAc(b1-4)[Fuc(a1-6)]GlcNAc
# How it was run: as §1
# [34] = target: Gal(b1-4)GlcNAc(b1-2)Man(a1-3)[Gal(b1-4)GlcNAc(b1-2)Man(a1-6)][GlcNAc(b1-4)]Man(b1-4)GlcNAc(b1-4)[Fuc(a1-6)]GlcNAc
# How it was run: as §1
# [35] = target: Gal(b1-4)GlcNAc(b1-2)Man(a1-3)[GlcNAc(b1-2)Man(a1-6)]Man(b1-4)GlcNAc(b1-4)GlcNAc
# How it was run: as §1
# [36] = target: Gal(b1-4)GlcNAc(b1-2)Man(a1-3)[GlcNAc(b1-4)][Gal(b1-4)GlcNAc(b1-2)Man(a1-6)]Man(b1-4)GlcNAc(b1-4)GlcNAc
# How it was run: as §1
# [37] = target: Gal(b1-4)GlcNAc(b1-2)Man(a1-3)[Man(a1-6)]Man(b1-4)GlcNAc(b1-4)GlcNAc
# How it was run: as §1
# [38] = target: Gal(b1-4)GlcNAc(b1-2)Man(a1-6)Man(b1-4)GlcNAc(b1-4)GlcNAc
# How it was run: as §1
# [39] = target: Gal(b1-4)GlcNAc(b1-2)Man(a1-6)[GlcNAc(b1-2)Man(a1-3)]Man(b1-4)GlcNAc(b1-4)GlcNAc
# How it was run: as §1
binder,measurement,setting,value
B1,glycan array binding signal (z-score),[1],-0.389
same,glycan array binding signal (z-score),[2],-0.912
same,glycan array binding signal (z-score),[3],-0.811
same,glycan array binding signal (z-score),[4],0.335
same,glycan array binding signal (z-score),[5],1.52
same,glycan array binding signal (z-score),[6],1.58
same,glycan array binding signal (z-score),[7],-0.337
same,glycan array binding signal (z-score),[8],-0.182
same,glycan array binding signal (z-score),[9],-0.446
same,glycan array binding signal (z-score),[10],-0.727
same,glycan array binding signal (z-score),[11],-0.528
same,glycan array binding signal (z-score),[12],-0.537
same,glycan array binding signal (z-score),[13],-0.573
same,glycan array binding signal (z-score),Gal(b1-3)GlcNAc6S,-0.709
same,glycan array binding signal (z-score),[14],-0.25
same,glycan array binding signal (z-score),[15],0.363
same,glycan array binding signal (z-score),[16],-0.759
same,glycan array binding signal (z-score),[17],1.12
same,glycan array binding signal (z-score),[18],0.038
same,glycan array binding signal (z-score),[19],-0.022
same,glycan array binding signal (z-score),[20],-0.378
same,glycan array binding signal (z-score),[21],0.145
same,glycan array binding signal (z-score),[22],-0.524
same,glycan array binding signal (z-score),[23],-0.4
same,glycan array binding signal (z-score),[24],-0.691
same,glycan array binding signal (z-score),[25],0.167
same,glycan array binding signal (z-score),[26],-1.02
same,glycan array binding signal (z-score),Gal(b1-4)Gal,-0.682
same,glycan array binding signal (z-score),[27],-0.217
same,glycan array binding signal (z-score),[28],-0.983
same,glycan array binding signal (z-score),Gal(b1-4)Glc,0.225
same,glycan array binding signal (z-score),Gal(b1-4)Glc6S,-0.359
same,glycan array binding signal (z-score),Gal(b1-4)GlcNAc,0.088
same,glycan array binding signal (z-score),[29],-0.787
same,glycan array binding signal (z-score),Gal(b1-4)GlcNAc(b1-2)Man,-0.128
same,glycan array binding signal (z-score),[30],0.06
same,glycan array binding signal (z-score),[31],-0.732
same,glycan array binding signal (z-score),[32],0.092
same,glycan array binding signal (z-score),[33],-0.482
same,glycan array binding signal (z-score),[34],-0.609
same,glycan array binding signal (z-score),[35],-0.437
same,glycan array binding signal (z-score),[36],-0.518
same,glycan array binding signal (z-score),[37],0.699
same,glycan array binding signal (z-score),[38],-0.286
same,glycan array binding signal (z-score),[39],-0.582

# A run of entries taken from the entries so far:
binder,measurement,setting,value
B1,glycan array binding signal (z-score),[29],-0.787
same,glycan array binding signal (z-score),Gal(b1-4)GlcNAc(b1-2)Man,-0.128
same,glycan array binding signal (z-score),[30],0.06
